Results deposited as PubChem BioAssay AID652272 (Drosophila RNAi Screening Center, 2013)
Screen: 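Genes whose knock-down decreases or increases Hedgehog reporter output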 (primary screen). Cell system: Drosophila clone 8 (Cl8) cells. Knock-down reagent: long dsRNA against Drosophila genes. Read-out: 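Plate reader light from a firefly reporter under a ptc promoter fragment that responds to Hedgehog, with Renilla light as transfection reference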. Reading the numbers: firefly Hh reporter signal: higher = more ptc reporter light; Renilla reference signal: higher = more Renilla control light. Active means: 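Hit when the z-score averaged over two replicates is under -2 or over +3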. Calls: active = hit: reporter lowered or raised; inactive = not a hit.
The deposit covers about 21,000 reagents; below is an unselected part of those that have a named target and a result. Over the whole deposit, 503 (2.4%) got an active call. 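Raw plate light values, not normalised; calls rest on replicate z-scores that were not deposited; hits include reporter decreases as well as increases.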 Reagents against one gene are numbered here. Names joined by + are all predicted targets of the reagent. The record does not give: the amount of reagent, the time to read-out.

no.	gene	reagent no.	firefly Hh reporter signal, replicate 1	firefly Hh reporter signal, replicate 2	firefly Hh reporter signal, replicate 3	Renilla reference signal, replicate 1	Renilla reference signal, replicate 2	Outcome
1	CR43361	1	89769	2.46e5		2204	8290	inactive
2	CrzR	1	63333	50983	54989	4993	3841	inactive
3	CrzR	2	61121	52538	45552	4310	3080	inactive
4	CG9986	1	1.02e5	86261		2083	2411	inactive
5	CG16756	1	60082	2.04e5		1452	8757	inactive
6	CG13438	1	85600	52269		3338	4549	inactive
7	Tsen34 + Trl	1	78839			4055	2182	inactive
8	Ilp8	1	98980			5165	3057	inactive
9	CG7742	1	55657	60925		2586	2768	inactive
10	galla-1	1	70186	30199		3056	3426	inactive
11	Usp20-33	1	1.43e5	86304		5649	3798	inactive
12	Cwc25	1	1.21e5	76545		3227	2675	inactive
13	SkpB	1	1.29e5	74534		2342	4151	inactive
14	sosie	1	7.10e5	1.54e5		35233	4696	inactive

An excerpt taken from the entries so far, for reference:
no.	gene	reagent no.	firefly Hh reporter signal, replicate 1	firefly Hh reporter signal, replicate 2	firefly Hh reporter signal, replicate 3	Renilla reference signal, replicate 1	Renilla reference signal, replicate 2	Outcome
5	CG16756	1	60082	2.04e5		1452	8757	inactive
6	CG13438	1	85600	52269		3338	4549	inactive
7	Tsen34 + Trl	1	78839			4055	2182	inactive
8	Ilp8	1	98980			5165	3057	inactive
9	CG7742	1	55657	60925		2586	2768	inactive

The listing continues:
no.	gene	reagent no.	firefly Hh reporter signal, replicate 1	firefly Hh reporter signal, replicate 2	firefly Hh reporter signal, replicate 3	Renilla reference signal, replicate 1	Renilla reference signal, replicate 2	Outcome
15	RecQ4	1	50618	40308		4642	2912	inactive
16	CG18682 (retired record)	1	1.19e5	69602		4082	1756	inactive
17	CG18682 (retired record)	2	98576	5.29e5	77204	3276	2608	inactive
18	CG30289	1	1.11e5	1.70e5		2801	7740	inactive
19	Proc-R	1	60041	1.66e5		1509	6535	inactive
20	asRNA:CR43477 + CG12256	1	61500	1.34e5		2407	3733	inactive
21	Obp99a	1	39802	55488		2037	2449	inactive
22	CG32982	1	3.80e5	1.49e5		23373	7868	inactive
23	CG32982	2	1.29e5	87909		2979	7160	inactive
24	CG32982	3	1.27e5	6.87e5	85873	3286	39937	inactive
25	CG32982	4	1.09e5	64733		2929	5318	inactive
26	CG13068	1	2.02e5			8224	6048	inactive
27	CG43367	1	81008	54899		2340	3917	inactive
28	CG43367	2	78352	41605		2395	3067	inactive
29	CG43367	3	93744	34544		2833	263	inactive
30	CG2124	1	52165	1.60e5		1413	6101	inactive
31	Glt	1	57410	28872		2408	1252	inactive
32	wcd	1	1.05e5	68116		5594	3666	inactive
33	CG12581	1	1.32e5	1.08e5		5545	4976	inactive
34	CG12581	2	1.38e5	1.87e5		4661	5030	inactive
35	Fbw5	1	1.14e5	53400		3056	4919	inactive
36	Tm2	1	72988	80827		1981	2438	inactive
37	CG2889	1	65447	1.52e5		1840	5952	inactive
38	galla-2	1	5.47e5	76717	55873	3444	6484	inactive
39	CG13272	1	1.11e5	59270		2843	5376	inactive
